PubChem BioAssay AID686943 – Drosophila RNAi Screening Center – 2013
Aim: 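Search across the genome for regulators of signalling from receptor tyrosine kinase to ERK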 (primary screen). Cells: Drosophila S2R+ haemocyte-like cells expressing YFP-tagged ERK (Rolled). Reagents: long dsRNA against Drosophila genes. Conditions: insulin stimulation versus unstimulated cells; dose and duration not given. Measured: 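Per-plate z-scores of phospho-ERK immunostaining normalised to YFP-tagged ERK, measured with and without insulin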. Scale: replicate 1, z-score of dpERK with insulin and replicate 2, z-score of dpERK with insulin: higher = more active ERK per ERK-YFP after insulin; replicate 1, z-score of dpERK under basal conditions: higher = more basal active ERK per ERK-YFP; replicate 1, z-score of ERK-YFP with insulin: higher = more YFP-tagged ERK signal.
The deposit covers about 23,000 reagents; below is an unselected part of those that have a named target and a result. 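Extra replicates exist only for a retested subset of genes; insulin dose and duration not given; both raised and lowered dpERK matter.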 Names joined by + are all predicted targets of the reagent. Not stated in the record: the amount of reagent, the time to read-out.

gene knocked down | dsRNA | replicate 1, z-score of dpERK with insulin | replicate 2, z-score of dpERK with insulin | replicate 1, z-score of dpERK under basal conditions | replicate 1, z-score of ERK-YFP with insulin
CG11693 | DRSC14353 | 0.09 | 0.01 | 1.28 | -0.51
CG8468 | DRSC07190 | -0.75 | 0.53 | 0.16 | -0.08
Tbcd | DRSC00273 | 0.31 | 0.71 | -0.09 | 0.44
CG1146 | DRSC08189 | 0.15 | 0.67 | 0.41 | 0.14
lncRNA:CR34046 | DRSC14075 | 0.76 | 0.33 | -1.09 | -0.86
CG42262 (retired record) | DRSC17628 | -0.22 | 0.08 | 0.27 | 0.28
CG42262 (retired record) | DRSC17974 | 1.04 | 0.79 | 0.53 | 0.89
kto | DRSC10983 | 1.62 | 1.4 | -0.56 | -2.08
ena | DRSC05779 | -2.04 | -0.74 | 0.17 | 0.62
ena | DRSC07610 | -2.12 | -2.09 | 0.73 | 0.13
eco | DRSC11006 | -0.99 | -0.43 | 0.62 | -1.51
fkh | DRSC16949 | -0.06 | 0 | -0.69 | 0.17
CG30427 | DRSC04014 | 0.03 | -0.46 | 1.27 | -0.18
CG30427 | DRSC04311 | 0.49 | 0.19 | 0.1 | -0.06
CG30427 | DRSC04323 | -1.8 | -0.59 | -0.3 | 2.72
TotC | DRSC13449 | 0.61 | 0.12 | -0.51 | -0.2
CG31802 | DRSC02459 | 0.89 | 0.07 | 0.72 | -0.23
l(2)k05911 | DRSC02523 | 0.09 | -0.27 | -0.3 | 0.4
tsg | DRSC20380 | 0.46 | 0.23 | 0.1 | -0.05
Cpr65Az | DRSC09882 | 1.38 | 1.07 | 0.08 | -0.36
Cpr65Az | DRSC22057 | -0.05 | 0.14 | 0.36 | 2.23

Next part; the last 5 above are carried over.
gene knocked down | dsRNA | replicate 1, z-score of dpERK with insulin | replicate 2, z-score of dpERK with insulin | replicate 1, z-score of dpERK under basal conditions | replicate 1, z-score of ERK-YFP with insulin
CG31802 | DRSC02459 | 0.89 | 0.07 | 0.72 | -0.23
l(2)k05911 | DRSC02523 | 0.09 | -0.27 | -0.3 | 0.4
tsg | DRSC20380 | 0.46 | 0.23 | 0.1 | -0.05
Cpr65Az | DRSC09882 | 1.38 | 1.07 | 0.08 | -0.36
Cpr65Az | DRSC22057 | -0.05 | 0.14 | 0.36 | 2.23
Ptth | DRSC00356 | 0.5 | -0.28 | -0.04 | 0.01
CG30411 | DRSC04004 | 0.7 | 0.08 | 0.38 | 0.16
dpp | DRSC00118 | 2.6 | 2.16 | 0.98 | -1.81
dpp | DRSC00121 | 0.08 | 0.83 | -0.14 | 0.01
dpp | DRSC00813 | -0.31 | 0.16 | -0.26 | -0.14
beat-Ib | DRSC03490 | 1.07 | -0.22 | 0.43 | -0.27
CG33342 | DRSC13662 | 0.98 | -1.33 | 0.11 | -0.68
daw | DRSC00479 | 1.59 | 1.58 | -0.49 | -0.25
CG15625 | DRSC00460 | -0.31 | -0.45 | -0.72 | 1.17
Duba | DRSC10582 | -1.64 | -0.31 | 0.18 | 1.15
CG31910 + snoRNA:Me28S-G2743 (retired record) | DRSC00946 | -0.14 | -0.94 | 0.05 | 1
I-3 | DRSC20479 | -0.35 | -0.76 | -0.9 | 0.16
CG17377 | DRSC00950 | 0.94 | -0.34 | -0.08 | -0.28
CG17377 | DRSC02615 | -0.14 | 0.29 | 0.16 | 0.11
CG17377 | DRSC21811 | -3.56 | -0.23 | 0.81 | -1.26
DAAM | DRSC18479 | -0.15 | 0.18 | 0.2 | 0.08
CG13215 | DRSC06337 | 0.81 | 0.94 | -0.51 | 0.9
RalGPS | DRSC06941 | 0.49 | 0.07 | -0.33 | -0.05
